Protein sequences, listed by entry. Tags and fused reporters are not part of them.
UniProt P08913, whole entry: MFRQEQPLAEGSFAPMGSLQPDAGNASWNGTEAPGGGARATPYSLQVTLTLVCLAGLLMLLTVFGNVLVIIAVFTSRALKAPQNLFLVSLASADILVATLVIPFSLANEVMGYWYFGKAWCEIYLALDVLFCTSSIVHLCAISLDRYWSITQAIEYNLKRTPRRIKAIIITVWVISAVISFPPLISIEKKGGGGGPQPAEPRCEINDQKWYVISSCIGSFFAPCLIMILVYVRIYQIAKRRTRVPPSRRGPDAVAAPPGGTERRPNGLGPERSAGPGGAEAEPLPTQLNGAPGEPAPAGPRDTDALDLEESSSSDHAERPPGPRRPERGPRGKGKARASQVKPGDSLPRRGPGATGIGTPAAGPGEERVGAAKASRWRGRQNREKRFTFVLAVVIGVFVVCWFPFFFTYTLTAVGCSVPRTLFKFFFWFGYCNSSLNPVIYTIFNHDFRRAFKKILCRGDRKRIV

In patent US20100331384A1, “GUANIDINE BASED COMPOUNDS” (UNIVERSIDAD DEL PAIS VASCO/EUSKAL HERRIKO UNIBERTSITATEA, priority 2007, published 2010):

Experiments:
α2-ARs [1] = target: T1, α2-ARs (Homo sapiens, UniProt P08913); assay: [35S]GTPγS binding functional assay, compounds alone; type: biochemical
T1 construct: other: human brain tissue in vitro; other: stimulation of [35S]GTPγS b
Description: The [^35S]GTPγs binding assay constitutes a functional measure of the interaction of the receptor and the G-protein and is a useful tool to distinguish between agonists (increasing the nucleotide binding), inverse agonists (decreasing the nucleotide binding), and neutral antagonists (not affecting the nucleotide binding) of GPCRs.^20 Experiments were performed in low-affinity receptor conditions for agonists (presence of guanine nucleotides and sodium in the medium), and therefore, typical potency values are two-three logarithmic units lower than affinity values obtained in radioligand receptor binding experiments.^20
Preparation of membranes. Neural membranes (P2 fractions) were prepared from the PFC of human brains obtained at autopsy in the Instituto Vasco de Medicina Legal, Bilbao, Spain. Postmortem human brain samples of each subject (˜1 g) were homogenized using a Teflon-glass grinder (10 up-and-down strokes at 1500 rpm) in 30 volumes of homogenization buffer (1 mM MgCl2, and 5 mM Tris-HCl, pH 7.4) supplemented with 0.25 M sucrose. […]
[^35S]GTPγs binding assays. […] The filters were rinsed twice with 3 mL of ice-cold re-suspension buffer, transferred to vials containing 5 mL of OptiPhase HiSafe II cocktail (Wallac, UK) and the radioactivity trapped was determined by liquid scintillation spectrometry (Packard 2200CA). […]

α2-ARs [2] = target: T1, α2-ARs; assay: [3H]RX821002 competition binding assay in human brain PFC membranes; details: human brain tissue in vitro

Cc1ccc(NC(=N)N)cc1C [Compound 15b, 1-guanidino-3,4-dimethylbenzene]
agonistic or antagonistic properties in [35S]GTPγS experiments (α2-ARs [1]; human brain PFC): agonistic properties
stimulation of [35S]GTPγS binding by the compound on its own (α2-ARs [1]; human brain PFC membranes): stimulated binding
affinity towards the α2-ARs compared with references (α2-ARs [2]): within the range of those of Idazoxan and/or Clonidine
